Test results from patent publication US20060292074A1 (SCHERING AKTIENGESELLSCHAFT, published 2006).
These are yes or no findings as the source states them, for the method shown. Some binding calls cover weakened binding; strength is not graded here. For part of these data: Tags and fused reporters may be left off the sequences shown.

T1: native tomoregulin (TR) on TR-expressing cells (PC3-TR, CHO-TR) (human) (UniProt Q9UIK5)
T1 sequence (looked up): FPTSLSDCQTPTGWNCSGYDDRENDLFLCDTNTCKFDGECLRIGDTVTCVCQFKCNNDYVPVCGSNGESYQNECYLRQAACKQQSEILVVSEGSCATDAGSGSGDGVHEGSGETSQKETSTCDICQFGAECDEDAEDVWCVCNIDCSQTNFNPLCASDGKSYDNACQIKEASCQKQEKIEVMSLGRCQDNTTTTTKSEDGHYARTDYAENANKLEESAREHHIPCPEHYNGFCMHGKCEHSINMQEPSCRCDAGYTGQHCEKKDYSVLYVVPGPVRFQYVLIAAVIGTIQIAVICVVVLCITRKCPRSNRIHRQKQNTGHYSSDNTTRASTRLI

T2: recombinant TR protein (extracellular domain of TR, amino acids 1-302, C-terminal 6xHis tag) (human) (UniProt Q9UIK5)
T2 sequence (chain, glycosylated): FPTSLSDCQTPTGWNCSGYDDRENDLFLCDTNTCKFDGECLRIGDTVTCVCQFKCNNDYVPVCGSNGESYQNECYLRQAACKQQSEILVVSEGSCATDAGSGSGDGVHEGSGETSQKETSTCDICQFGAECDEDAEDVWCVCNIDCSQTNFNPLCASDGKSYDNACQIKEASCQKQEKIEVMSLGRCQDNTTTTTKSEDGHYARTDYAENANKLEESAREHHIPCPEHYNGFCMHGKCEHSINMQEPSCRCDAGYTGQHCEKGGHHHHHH

B1: AT-19 IgG (fully human IgG1 format of AT-19) (antibody, V domains shown)
VH: QVQLVQSGGGLVQPGGSLRLSCAASGFTFSNYAMSWVRQAPGKGLEWVSAISGNGGATYYADSMKGRFTISRDNSKNTLSLQLNSLRVEDTAVYYCAKSLIWGYDRGVDYWGQGTLVTVSA
VL: HVILTQPPSASGTPGQRVTISCSGGASNIGTNSVNWYQQLPGTAPKLLLYTNDHRPSGVPDRFSGKSGTSASLAISGLQAEDEGDYYCAAWDDTMNGHVVFGGGTKLTVLG
notes: also called fully human AT-19 IgG
B2: AT-19 scFv (monomeric, monovalent single-chain anti-TR antibody) (scFv)
scFv: QVQLVQSGGGLVQPGGSLRLSCAASGFTFSNYAMSWVRQAPGKGLEWVSAISGNGGATYYADSMKGRFTISRDNSKNTLSLQLNSLRVEDTAVYYCAKSLIWGYDRGVDYWGQGTLVTVSAGGGGSGGGGSGGGGSGAPHVILTQPPSASGTPGQRVTISCSGGASNIGTNSVNWYQQLPGTAPKLLLYTNDHRPSGVPDRFSGKSGTSASLAISGLQAEDEGDYYCAAWDDTMNGHVVFGGGTKLTVLG
notes: also called monovalent AT-19 scFv; monomeric AT-19 scFv; not shown: E-tag from the pZ603 (pCANTAB5E-based) vector

Tests used:
[1] = molecular target: T1, native tomoregulin (TR) on TR-expressing cells (PC3-TR, CHO-TR) (human); assay: immunofluorescence, confocal microscopy on TR-positive cells
[2] = molecular target: T2, recombinant TR protein (extracellular domain of TR, amino acids 1-302, C-terminal 6xHis tag) (human); assay: direct ELISA on recombinant TR
[3] = molecular target: T1, native tomoregulin (TR) on TR-expressing cells (PC3-TR, CHO-TR) (human); assay: differential live cell ELISA on CHO-TR against CHOK1 cells, crude scFv supernatant, anti-Etag-HRP

Binder	binding [1]	binding [2]	binding [3]
B1	binds		
B2		binds	binds
